Experimental findings from publication PMC8586708, “SC75741, A Novel c-Abl Inhibitor, Promotes the Clearance of TDP25 Aggregates via ATG5-Dependent Autophagy Pathway” (Frontiers in Pharmacology, 2021) are described below.

Amino acid sequences for entries named in this document (tags omitted). Residues count along the entry.
UniProt Q9BXW4, residues 1-126: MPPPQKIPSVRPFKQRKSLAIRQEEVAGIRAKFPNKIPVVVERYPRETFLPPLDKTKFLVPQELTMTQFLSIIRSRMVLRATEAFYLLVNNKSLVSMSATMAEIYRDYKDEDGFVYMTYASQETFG

Results are given in words; binding and its absence hold for the method and conditions named. In cells and extracts the contact can be indirect. Some binding calls cover weakened binding; strength is not graded here.

This assay has as its target Flag-p62 (UniProt Q13501). The assay can be described thus: co-IP; HEK293 p62-/- cells transfected with GFP, GFP-TDP25, Flag and Flag-p62 for 24 h, with or without SC75741 (5 uM) for another 6 h; immunoprecipitation and immunoblot.

As to “LC3C (in HEK293 p62-/- cells) (from UniProt Q9BXW4 1-126)”, the binding entry is “binds”.
